Source: publication PMC7910609
No constants are given. Whether binding was seen depends on the method and setting. Some entries that bind do so weakly or less than the wild type.

Protein sequences, listed by entry. Tags and fused reporters are not part of them.
UniProt P31749: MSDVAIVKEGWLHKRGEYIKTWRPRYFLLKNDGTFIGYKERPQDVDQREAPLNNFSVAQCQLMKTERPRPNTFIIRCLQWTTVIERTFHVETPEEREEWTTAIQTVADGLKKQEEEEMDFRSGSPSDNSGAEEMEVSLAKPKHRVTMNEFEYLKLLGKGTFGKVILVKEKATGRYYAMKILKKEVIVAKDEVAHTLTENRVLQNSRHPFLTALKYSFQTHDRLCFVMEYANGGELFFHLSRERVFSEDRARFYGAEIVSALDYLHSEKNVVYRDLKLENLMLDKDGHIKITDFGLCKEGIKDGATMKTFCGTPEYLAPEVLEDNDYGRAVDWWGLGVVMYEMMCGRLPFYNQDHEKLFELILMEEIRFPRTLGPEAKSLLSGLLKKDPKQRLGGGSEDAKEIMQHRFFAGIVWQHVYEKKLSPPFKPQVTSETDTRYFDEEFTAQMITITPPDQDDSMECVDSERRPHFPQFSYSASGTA
UniProt Q9NVI1: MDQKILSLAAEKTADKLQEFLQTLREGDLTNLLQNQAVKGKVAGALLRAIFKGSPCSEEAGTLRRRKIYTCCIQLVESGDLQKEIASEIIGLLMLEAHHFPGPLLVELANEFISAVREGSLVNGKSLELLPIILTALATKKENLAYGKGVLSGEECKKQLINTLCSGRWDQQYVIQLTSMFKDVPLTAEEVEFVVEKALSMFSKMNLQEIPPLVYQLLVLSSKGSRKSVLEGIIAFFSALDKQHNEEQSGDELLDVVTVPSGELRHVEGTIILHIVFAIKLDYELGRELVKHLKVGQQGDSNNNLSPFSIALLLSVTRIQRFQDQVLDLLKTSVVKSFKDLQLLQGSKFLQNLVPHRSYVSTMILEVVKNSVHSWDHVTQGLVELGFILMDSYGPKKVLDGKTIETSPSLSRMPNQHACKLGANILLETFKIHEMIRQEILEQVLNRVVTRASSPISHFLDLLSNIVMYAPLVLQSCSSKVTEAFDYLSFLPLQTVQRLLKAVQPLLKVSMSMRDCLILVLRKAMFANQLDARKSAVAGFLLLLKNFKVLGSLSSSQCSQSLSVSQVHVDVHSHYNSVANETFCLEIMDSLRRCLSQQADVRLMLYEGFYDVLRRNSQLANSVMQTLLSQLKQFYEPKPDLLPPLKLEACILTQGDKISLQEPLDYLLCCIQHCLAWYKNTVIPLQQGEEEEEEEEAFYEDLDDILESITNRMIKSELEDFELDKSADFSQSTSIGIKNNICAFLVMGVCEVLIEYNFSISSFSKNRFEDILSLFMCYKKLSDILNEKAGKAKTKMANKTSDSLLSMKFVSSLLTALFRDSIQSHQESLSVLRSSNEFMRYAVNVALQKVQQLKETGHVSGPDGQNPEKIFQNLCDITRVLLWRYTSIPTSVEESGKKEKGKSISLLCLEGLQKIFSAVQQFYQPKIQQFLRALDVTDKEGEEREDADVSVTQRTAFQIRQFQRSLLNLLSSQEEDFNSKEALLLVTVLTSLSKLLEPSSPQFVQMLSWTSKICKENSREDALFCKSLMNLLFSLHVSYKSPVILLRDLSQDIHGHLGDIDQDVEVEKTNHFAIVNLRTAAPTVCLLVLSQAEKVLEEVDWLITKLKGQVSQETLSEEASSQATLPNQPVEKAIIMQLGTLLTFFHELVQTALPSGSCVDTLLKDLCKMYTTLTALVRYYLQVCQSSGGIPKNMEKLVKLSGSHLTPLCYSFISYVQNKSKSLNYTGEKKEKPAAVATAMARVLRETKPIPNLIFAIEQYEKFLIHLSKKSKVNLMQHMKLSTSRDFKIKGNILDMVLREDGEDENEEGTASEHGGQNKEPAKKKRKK
UniProt Q7L5D6: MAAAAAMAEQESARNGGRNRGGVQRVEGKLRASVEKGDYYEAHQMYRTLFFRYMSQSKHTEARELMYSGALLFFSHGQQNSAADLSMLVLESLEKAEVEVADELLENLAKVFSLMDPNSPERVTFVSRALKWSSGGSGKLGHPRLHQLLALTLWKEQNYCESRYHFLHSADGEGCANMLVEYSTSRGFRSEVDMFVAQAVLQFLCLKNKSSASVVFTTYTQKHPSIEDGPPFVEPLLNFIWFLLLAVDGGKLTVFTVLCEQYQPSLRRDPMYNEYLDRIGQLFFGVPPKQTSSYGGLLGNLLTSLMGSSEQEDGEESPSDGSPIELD

Target: protein kinase B (AKT1) (UniProt P31749)
Test: thermal proteome profiling (TPP); 500 nM AKT1 alone added to cell lysate with phosphatase inhibitors, 37 °C for 30 min; aliquots heated at 37-67 °C for 3 min; soluble fraction quantified by TMT LC-MS/MS; read-out is the Tm shift against vehicle; duplicates; only the target purified

Row | Molecule | binding
1 | FANCI (from UniProt Q9NVI1 1-1328) | binds
2 | GET4 (from UniProt Q7L5D6 1-327) | binds

Results, then the molecule that gave them:

Row | binding | Molecule
3 | binds | MAZ (protein, UniProt P56270 1-477) MFPVFPCTLLAPPFPVLGLDSRGVGGLMNSFPPPQGHAQNPLQVGAELQSRFFASQGCAQSPFQAAPAPPPTPQAPAAEPLQVDLLPVLAAAQESAAAAAAAAAAAAAVAAAPPAPAAASTVDTAALKQPPAPPPPPPPVSAPAAEAAPPASAATIAAAAATAVVAPTSTVAVAPVASALEKKTKSKGPYICALCAKEFKNGYNLRRHEAIHTGAKAGRVPSGAMKMPTMVPLSLLSVPQLSGAGGGGGEAGAGGGAAAVAAGGVVTTTASGKRIRKNHACEMCGKAFRDVYHLNRHKLSHSDEKPYQCPVCQQRFKRKDRMSYHVRSHDGAVHKPYNCSHCGKSFSRPDHLNSHVRQVHSTERPFKCEKCEAAFATKDRLRAHTVRHEEKVPCHVCGKMLSSAYISDHMKVHSQGPHHVCELCNKGTGEVCPMAAAAAAAAAAAAAAVAAPPTAVGSLSGAEGVPVSSQPLPSQPW
4 | binds | PHLPP2 (protein, UniProt Q6ZVD8 1-1323) MKRNGSRNCLNRRSRFGSRERDWLREDVKRGCVYLYGADTTTATTTTTTSSSSSSSSSSSDLHLVLCTVETPASEICAGEGRESLYLQLHGDLVRRLEPTERPLQIVYDYLSRLGFDDPVRIQEEATNPDLGCMIRFYGEKPCHMDRLDRILLSGIYNVRKGKTQLHKWAERLVVLCGTCLIVSSVKDCQTGKMHILPLVGGKIEEVKRRQYSLAFSSAGAQAQTYHVSFETLAEYQRWQRQASKVVSQRISTVDLSCYSLEEVPEHLFYSQDITYLNLRHNFMQLERPGGLDTLYKFSQLKGLNLSHNKLGLFPILLCEISTLTELNLSCNGFHDLPSQIGNLLNLQTLCLDGNFLTTLPEELGNLQQLSSLGISFNNFSQIPEVYEKLTMLDRVVMAGNCLEVLNLGVLNRMNHIKHVDLRMNHLKTMVIENLEGNKHITHVDLRDNRLTDLDLSSLCSLEQLHCGRNQLRELTLSGFSLRTLYASSNRLTAVNVYPVPSLLTFLDLSRNLLECVPDWACEAKKIEVLDVSYNLLTEVPVRILSSLSLRKLMLGHNHVQNLPTLVEHIPLEVLDLQHNALTRLPDTLFSKALNLRYLNASANSLESLPSACTGEESLSMLQLLYLTNNLLTDQCIPVLVGHLHLRILHLANNQLQTFPASKLNKLEQLEELNLSGNKLKTIPTTIANCKRLHTLVAHSNNISIFPEILQLPQIQFVDLSCNDLTEILIPEALPATLQDLDLTGNTNLVLEHKTLDIFSHITTLKIDQKPLPTTDSTVTSTFWSHGLAEMAGQRNKLCVSALAMDSFAEGVGAVYGMFDGDRNEELPRLLQCTMADVLLEEVQQSTNDTVFMANTFLVSHRKLGMAGQKLGSSALLCYIRPDTADPASSFSLTVANVGTCQAVLCRGGKPVPLSKVFSLEQDPEEAQRVKDQKAIITEDNKVNGVTCCTRMLGCTYLYPWILPKPHISSTPLTIQDELLILGNKALWEHLSYTEAVNAVRHVQDPLAAAKKLCTLAQSYGCQDNVGAMVVYLNIGEEGCTCEMNGLTLPGPVGFASTTTIKDAPKPATPSSSSGIASEFSSEMSTSEVSSEVGSTASDEHNAGGLDTALLPRPERRCSLHPTPTSGLFQRQPSSATFSSNQSDNGLDSDDDQPVEGVITNGSKVEVEVDIHCCRGRDLENSPPLIESSPTLCSEEHARGSCFGIRRQNSVNSGMLLPMSKDRMELQKSPSTSCLYGKKLSNGSIVPLEDSLNLIEVATEVPKRKTGYFAAPTQMEPEDQFVVPHDLEEEVKEQMKQHQDSRLEPEPHEEDRTEPPEEFDTAL
